Laboratory results reported in PMC5864832.

Amino acid sequences for entries named in this document (tags omitted). Residues count along the entry.
UniProt P02545, residues 1-646: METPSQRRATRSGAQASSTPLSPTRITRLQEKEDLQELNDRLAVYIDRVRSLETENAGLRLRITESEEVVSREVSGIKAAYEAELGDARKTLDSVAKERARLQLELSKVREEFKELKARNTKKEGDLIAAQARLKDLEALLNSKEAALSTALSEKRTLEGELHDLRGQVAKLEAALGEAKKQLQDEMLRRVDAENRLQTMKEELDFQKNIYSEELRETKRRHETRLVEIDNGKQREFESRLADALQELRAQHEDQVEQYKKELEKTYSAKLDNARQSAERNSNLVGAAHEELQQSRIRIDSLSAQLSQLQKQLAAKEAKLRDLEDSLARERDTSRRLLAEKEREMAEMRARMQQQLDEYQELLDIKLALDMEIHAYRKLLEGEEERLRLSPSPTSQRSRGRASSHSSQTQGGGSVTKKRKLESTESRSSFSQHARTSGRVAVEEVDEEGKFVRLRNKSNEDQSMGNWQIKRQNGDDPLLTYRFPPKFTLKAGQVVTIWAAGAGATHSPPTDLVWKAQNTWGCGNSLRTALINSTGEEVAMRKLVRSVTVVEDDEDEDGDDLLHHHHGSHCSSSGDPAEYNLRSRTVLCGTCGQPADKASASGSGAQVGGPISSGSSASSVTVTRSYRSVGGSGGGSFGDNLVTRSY
UniProt Q9UHV7: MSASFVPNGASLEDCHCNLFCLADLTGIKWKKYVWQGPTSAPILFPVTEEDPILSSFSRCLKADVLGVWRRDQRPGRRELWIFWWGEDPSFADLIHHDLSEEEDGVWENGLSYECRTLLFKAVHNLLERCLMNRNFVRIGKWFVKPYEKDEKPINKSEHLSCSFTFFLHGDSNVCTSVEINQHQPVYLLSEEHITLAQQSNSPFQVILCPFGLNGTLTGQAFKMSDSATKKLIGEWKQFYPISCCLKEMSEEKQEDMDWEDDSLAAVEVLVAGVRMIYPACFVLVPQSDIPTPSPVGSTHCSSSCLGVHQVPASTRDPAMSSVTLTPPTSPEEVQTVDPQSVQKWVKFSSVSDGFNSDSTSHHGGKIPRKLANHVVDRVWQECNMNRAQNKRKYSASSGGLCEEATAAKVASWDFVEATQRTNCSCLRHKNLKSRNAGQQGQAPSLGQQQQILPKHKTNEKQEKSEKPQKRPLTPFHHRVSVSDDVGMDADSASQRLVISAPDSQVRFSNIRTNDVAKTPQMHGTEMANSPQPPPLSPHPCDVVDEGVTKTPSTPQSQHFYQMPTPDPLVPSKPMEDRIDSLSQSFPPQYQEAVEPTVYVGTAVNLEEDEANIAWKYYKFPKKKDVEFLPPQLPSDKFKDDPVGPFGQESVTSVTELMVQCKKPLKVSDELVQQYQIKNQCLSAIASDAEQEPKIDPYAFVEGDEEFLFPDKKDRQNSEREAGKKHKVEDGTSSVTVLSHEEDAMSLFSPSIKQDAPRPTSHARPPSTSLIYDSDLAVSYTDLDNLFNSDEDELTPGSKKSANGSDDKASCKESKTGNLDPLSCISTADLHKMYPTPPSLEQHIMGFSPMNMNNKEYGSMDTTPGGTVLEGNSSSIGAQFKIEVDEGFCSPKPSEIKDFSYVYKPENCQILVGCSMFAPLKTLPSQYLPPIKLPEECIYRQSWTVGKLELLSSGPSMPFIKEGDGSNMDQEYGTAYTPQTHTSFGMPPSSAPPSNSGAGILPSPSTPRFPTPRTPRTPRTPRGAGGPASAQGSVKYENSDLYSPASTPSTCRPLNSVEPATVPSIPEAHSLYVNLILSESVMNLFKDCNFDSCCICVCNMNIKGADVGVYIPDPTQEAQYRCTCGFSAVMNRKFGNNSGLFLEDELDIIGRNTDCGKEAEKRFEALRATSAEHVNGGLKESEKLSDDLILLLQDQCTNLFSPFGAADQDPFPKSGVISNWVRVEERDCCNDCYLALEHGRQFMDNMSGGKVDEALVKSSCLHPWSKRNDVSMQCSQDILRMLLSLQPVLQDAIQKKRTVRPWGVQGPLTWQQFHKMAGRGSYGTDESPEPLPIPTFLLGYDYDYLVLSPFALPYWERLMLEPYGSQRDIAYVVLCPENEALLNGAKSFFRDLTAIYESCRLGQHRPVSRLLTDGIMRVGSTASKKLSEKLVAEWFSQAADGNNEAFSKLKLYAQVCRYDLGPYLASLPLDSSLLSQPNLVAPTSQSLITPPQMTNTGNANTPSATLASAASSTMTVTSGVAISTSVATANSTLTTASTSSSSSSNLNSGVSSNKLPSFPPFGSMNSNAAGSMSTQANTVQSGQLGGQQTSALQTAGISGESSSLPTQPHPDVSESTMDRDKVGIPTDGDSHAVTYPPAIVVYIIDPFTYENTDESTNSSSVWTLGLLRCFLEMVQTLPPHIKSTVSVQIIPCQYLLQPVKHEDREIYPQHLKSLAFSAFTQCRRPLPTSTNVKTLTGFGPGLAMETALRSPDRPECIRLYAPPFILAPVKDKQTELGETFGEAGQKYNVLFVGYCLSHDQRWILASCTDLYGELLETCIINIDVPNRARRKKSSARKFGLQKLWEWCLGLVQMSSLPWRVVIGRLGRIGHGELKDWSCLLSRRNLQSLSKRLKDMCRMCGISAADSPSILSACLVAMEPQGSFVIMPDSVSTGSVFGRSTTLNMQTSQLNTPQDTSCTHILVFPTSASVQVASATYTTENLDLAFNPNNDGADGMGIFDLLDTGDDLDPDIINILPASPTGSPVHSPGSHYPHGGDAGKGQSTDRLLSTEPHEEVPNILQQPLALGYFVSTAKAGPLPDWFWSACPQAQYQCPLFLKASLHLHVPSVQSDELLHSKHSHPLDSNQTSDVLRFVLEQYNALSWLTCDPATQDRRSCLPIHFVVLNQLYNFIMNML
UniProt P49336: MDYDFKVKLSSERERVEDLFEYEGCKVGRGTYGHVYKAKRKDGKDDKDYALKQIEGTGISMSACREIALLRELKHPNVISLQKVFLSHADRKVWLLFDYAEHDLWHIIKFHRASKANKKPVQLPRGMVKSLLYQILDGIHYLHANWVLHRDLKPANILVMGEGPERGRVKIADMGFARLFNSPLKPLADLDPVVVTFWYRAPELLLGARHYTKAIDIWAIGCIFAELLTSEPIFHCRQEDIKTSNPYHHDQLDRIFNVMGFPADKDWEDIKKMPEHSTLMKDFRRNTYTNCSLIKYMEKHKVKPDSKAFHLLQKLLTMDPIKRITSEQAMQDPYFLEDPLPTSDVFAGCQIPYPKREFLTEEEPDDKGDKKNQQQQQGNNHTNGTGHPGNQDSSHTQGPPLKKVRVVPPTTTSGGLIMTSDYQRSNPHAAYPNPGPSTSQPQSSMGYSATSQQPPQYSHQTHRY
UniProt Q14739: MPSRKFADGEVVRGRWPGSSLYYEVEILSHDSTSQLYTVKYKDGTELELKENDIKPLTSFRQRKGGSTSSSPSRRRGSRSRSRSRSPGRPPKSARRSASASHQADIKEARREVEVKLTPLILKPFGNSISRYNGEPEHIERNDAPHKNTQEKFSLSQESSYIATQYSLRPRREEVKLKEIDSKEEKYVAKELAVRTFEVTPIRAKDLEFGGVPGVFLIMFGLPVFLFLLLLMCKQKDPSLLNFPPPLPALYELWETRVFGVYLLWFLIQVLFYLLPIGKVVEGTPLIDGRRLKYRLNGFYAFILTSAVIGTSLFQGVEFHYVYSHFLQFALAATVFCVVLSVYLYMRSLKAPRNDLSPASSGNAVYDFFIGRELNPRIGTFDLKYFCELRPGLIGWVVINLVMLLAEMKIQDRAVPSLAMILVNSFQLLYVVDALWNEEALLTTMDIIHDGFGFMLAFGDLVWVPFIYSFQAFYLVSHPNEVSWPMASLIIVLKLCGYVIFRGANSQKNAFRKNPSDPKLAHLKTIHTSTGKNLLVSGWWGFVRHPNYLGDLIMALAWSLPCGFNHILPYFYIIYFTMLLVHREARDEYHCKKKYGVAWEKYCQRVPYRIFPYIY
UniProt P52294: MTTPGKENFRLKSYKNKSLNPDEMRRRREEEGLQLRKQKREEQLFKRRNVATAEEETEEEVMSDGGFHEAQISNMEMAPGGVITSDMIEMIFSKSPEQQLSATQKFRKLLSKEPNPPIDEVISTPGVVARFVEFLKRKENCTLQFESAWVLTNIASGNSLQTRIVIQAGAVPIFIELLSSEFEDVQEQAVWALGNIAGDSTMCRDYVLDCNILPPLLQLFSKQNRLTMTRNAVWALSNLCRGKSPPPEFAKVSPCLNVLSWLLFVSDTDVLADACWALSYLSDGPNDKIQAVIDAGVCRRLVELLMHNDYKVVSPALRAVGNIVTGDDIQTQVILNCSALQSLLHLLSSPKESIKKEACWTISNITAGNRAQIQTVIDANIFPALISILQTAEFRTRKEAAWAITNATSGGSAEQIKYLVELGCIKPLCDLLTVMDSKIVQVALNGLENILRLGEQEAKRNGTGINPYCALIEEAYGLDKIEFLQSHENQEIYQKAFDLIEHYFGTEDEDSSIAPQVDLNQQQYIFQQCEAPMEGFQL

Legend:
Prelamin-A/C (human) [1] = molecular target: Prelamin-A/C (human) (UniProt P02545); assay: proximity labelling; BioID: MAC-tagged bait in stable Flp-In T-REx 293 cells, tetracycline and 50 uM biotin 24 h; lysis buffer 2 (as buffer 1 with 0.1% SDS), sonication, benzonase; biotinylated proteins on Strep-Tactin beads; LC-MS; SAINT and CRAPome filter
Prelamin-A/C (human) [2] = molecular target: Prelamin-A/C (human) (UniProt P02545); assay: affinity purification with mass spectrometry; MAC-tagged bait in stable Flp-In T-REx 293 cells, 1 ug/ml tetracycline 24 h, no biotin; lysis buffer 1 (0.5% IGEPAL, 50 mM Hepes pH 8.0, 150 mM NaCl, 50 mM NaF, 5 mM EDTA); single-step Strep-Tactin beads, elution with 0.5 mM biotin; LC-MS; SAINT score >= 0.73 and CRAPome filter against MAC-GFP controls
[3] = molecular target: mediator of RNA polymerase II transcription subunit 13 (human) (UniProt Q9UHV7); assay: affinity purification with mass spectrometry + proximity labelling; bait-normalised prey PSM values of AP-MS and of BioID of the same MAC-tagged bait integrated to a relative distance between bait and prey
[4] = molecular target: cyclin-dependent kinase (CDK) 8 (human) (UniProt P49336); assay: as above

binding (Prelamin-A/C (human) [1])	binding (Prelamin-A/C (human) [2])	binding [3]	binding [4]	Molecule
binds	binds	–	–	importin subunit alpha IMA7 (from UniProt O60684 1-536)
binds	binds	–	–	lamin-B receptor (from UniProt Q14739 1-615)
binds	binds	–	–	nucleoprotein TPR (from UniProt P12270 1-2363)
binds	binds	–	–	importin subunit alpha IMA5 (from UniProt P52294 1-538)
binds	binds	–	–	LAP2B (protein, UniProt P42167 1-454) MPEFLEDPSVLTKDKLKSELVANNVTLPAGEQRKDVYVQLYLQHLTARNRPPLPAGTNSKGPPDFSSDEEREPTPVLGSGAAAAGRSRAAVGRKATKKTDKPRQEDKDDLDVTELTNEDLLDQLVKYGVNPGPIVGTTRKLYEKKLLKLREQGTESRSSTPLPTISSSAENTRQNGSNDSDRYSDNEEDSKIELKLEKREPLKGRAKTPVTLKQRRVEHNQSYSQAGITETEWTSGSSKGGPLQALTRESTRGSRRTPRKRVETSEHFRIDGPVISESTPIAETIMASSNESLVVNRVTGNFKHASPILPITEFSDIPRRAPKKPLTRAEVGEKTEERRVERDILKEMFPYEASTPTGISASCRRPIKGAAGRPLELSDFRMEESFSSKYVPKYVPLADVKSEKTKKGRSIPVWIKILLFVVVAVFLFLVYQAMETNQVNPFSNFLHVDPRKSN
–	–	binds	binds	MED23 (protein, UniProt Q9ULK4 1-1368) METQLQSIFEEVVKTEVIEEAFPGMFMDTPEDEKTKLISCLGAFRQFWGGLSQESHEQCIQWIVKFIHGQHSPKRISFLYDCLAMAVETGLLPPRLVCESLINSDTLEWERTQLWALTFKLVRKIIGGVDYKGVRDLLKVILEKILTIPNTVSSAVVQQLLAAREVIAYILERNACLLPAYFAVTEIRKLYPEGKLPHWLLGNLVSDFVDTFRPTARINSICGRCSLLPVVNNSGAICNSWKLDPATLRFPLKGLLPYDKDLFEPQTALLRYVLEQPYSRDMVCNMLGLNKQHKQRCPVLEDQLVDLVVYAMERSETEEKFDDGGTSQLLWQHLSSQLIFFVLFQFASFPHMVLSLHQKLAGRGLIKGRDHLMWVLLQFISGSIQKNALADFLPVMKLFDLLYPEKEYIPVPDINKPQSTHAFAMTCIWIHLNRKAQNDNSKLQIPIPHSLRLHHEFLQQSLRNKSLQMNDYKIALLCNAYSTNSECFTLPMGALVETIYGNGIMRIPLPGTNCMASGSITPLPMNLLDSLTVHAKMSLIHSIATRVIKLAHAKSSVALAPALVETYSRLLVYMEIESLGIKGFISQLLPTVFKSHAWGILHTLLEMFSYRMHHIQPHYRVQLLSHLHTLAAVAQTNQNQLHLCVESTALRLITALGSSEVQPQFTRFLSDPKTVLSAESEELNRALILTLARATHVTDFFTGSDSIQGTWCKDILQTIMSFTPHNWASHTLSCFPGPLQAFFKQNNVPQESRFNLKKNVEEEYRKWKSMSNENDIITHFSMQGSPPLFLCLLWKMLLETDHINQIGYRVLERIGARALVAHVRTFADFLVYEFSTSAGGQQLNKCIEILNDMVWKYNIVTLDRLILCLAMRSHEGNEAQVCYFIIQLLLLKPNDFRNRVSDFVKENSPEHWLQNDWHTKHMNYHKKYPEKLYFEGLAEQVDPPVQIQSPYLPIYFGNVCLRFLPVFDIVIHRFLELLPVSKSLETLLDHLGGLYKFHDRPVTYLYNTLHYYEMHLRDRAFLKRKLVHAIIGSLKDNRPQGWCLSDTYLKCAMNAREENPWVPDDTYYCRLIGRLVDTMAGKSPGPFPNCDWRFNEFPNPAAHALHVTCVELMALAVSGKEVGNALLNVVLKSQPLVPRENITAWMNAIGLIITALPEPYWIVLHDRIVSVISSPSLTSETEWVGYPFRLFDFTACHQSYSEMSCSYTLALAHAVWHHSSIGQLSLIPKFLTEVLLPIVKTEFQLLYVYHLVGPFLQRFQQERTRCMIEIGVAFYDMLLNVDQCSTHLNYMDPICDFLYHMKYMFTGDSVKEQVEKIICNLKPALKLRLRFITHISKMEPAAVPPQAMNSGSPAPQSNQVPVSLPVTQ
–	–	binds	binds	MED24 (protein, UniProt O75448 1-989) MKVVNLKQAILQAWKERWSDYQWAINMKKFFPKGATWDILNLADALLEQAMIGPSPNPLILSYLKYAISSQMVSYSSVLTAISKFDDFSRDLCVQALLDIMDMFCDRLSCHGKAEECIGLCRALLSALHWLLRCTAASAERLREGLEAGTPAAGEKQLAMCLQRLEKTLSSTKNRALLHIAKLEEASSWTAIEHSLLKLGEILANLSNPQLRSQAEQCGTLIRSIPTMLSVHAEQMHKTGFPTVHAVILLEGTMNLTGETQSLVEQLTMVKRMQHIPTPLFVLEIWKACFVGLIESPEGTEELKWTAFTFLKIPQVLVKLKKYSHGDKDFTEDVNCAFEFLLKLTPLLDKADQRCNCDCTNFLLQECGKQGLLSEASVNNLMAKRKADREHAPQQKSGENANIQPNIQLILRAEPTVTNILKTMDADHSKSPEGLLGVLGHMLSGKSLDLLLAAAAATGKLKSFARKFINLNEFTTYGSEESTKPASVRALLFDISFLMLCHVAQTYGSEVILSESRTGAEVPFFETWMQTCMPEEGKILNPDHPCFRPDSTKVESLVALLNNSSEMKLVQMKWHEACLSISAAILEILNAWENGVLAFESIQKITDNIKGKVCSLAVCAVAWLVAHVRMLGLDEREKSLQMIRQLAGPLFSENTLQFYNERVVIMNSILERMCADVLQQTATQIKFPSTGVDTMPYWNLLPPKRPIKEVLTDIFAKVLEKGWVDSRSIHIFDTLLHMGGVYWFCNNLIKELLKETRKEHTLRAVELLYSIFCLDMQQVTLVLLGHILPGLLTDSSKWHSLMDPPGTALAKLAVWCALSSYSSHKGQASTRQKKRHREDIEDYISLFPLDDVQPSKLMRLLSSNEDDANILSSPTDRSMSSSLSASQLHTVNMRDPLNRVLANLFLLISSILGSRTAGPHTQFVQWFMEECVDCLEQGGRGSVLQFMPFTTVSELVKVSAMSSPKVVLAITDLSLPLGRQVAAKAIAAL
–	–	binds	binds	MED17 (protein, UniProt Q9NVC6 1-651) MSGVRAVRISIESACEKQVHEVGLDGTETYLPPLSMSQNLARLAQRIDFSQGSGSEEEEAAGTEGDAQEWPGAGSSADQDDEEGVVKFQPSLWPWDSVRNNLRSALTEMCVLYDVLSIVRDKKFMTLDPVSQDALPPKQNPQTLQLISKKKSLAGAAQILLKGAERLTKSVTENQENKLQRDFNSELLRLRQHWKLRKVGDKILGDLSYRSAGSLFPHHGTFEVIKNTDLDLDKKIPEDYCPLDVQIPSDLEGSAYIKVSIQKQAPDIGDLGTVNLFKRPLPKSKPGSPHWQTKLEAAQNVLLCKEIFAQLSREAVQIKSQVPHIVVKNQIISQPFPSLQLSISLCHSSNDKKSQKFATEKQCPEDHLYVLEHNLHLLIREFHKQTLSSIMMPHPASAPFGHKRMRLSGPQAFDKNEINSLQSSEGLLEKIIKQAKHIFLRSRAAATIDSLASRIEDPQIQAHWSNINDVYESSVKVLITSQGYEQICKSIQLQLNIGVEQIRVVHRDGRVITLSYQEQELQDFLLSQMSQHQVHAVQQLAKVMGWQVLSFSNHVGLGPIESIGNASAITVASPSGDYAISVRNGPESGSKIMVQFPRNQCKDLPKSDVLQDNKWSHLRGPFKEVQWNKMEGRNFVYKMELLMSALSPCLL
binds	binds	–	–	lamina-associated polypeptide (LAP)2A (protein, UniProt P42166 1-694) MPEFLEDPSVLTKDKLKSELVANNVTLPAGEQRKDVYVQLYLQHLTARNRPPLPAGTNSKGPPDFSSDEEREPTPVLGSGAAAAGRSRAAVGRKATKKTDKPRQEDKDDLDVTELTNEDLLDQLVKYGVNPGPIVGTTRKLYEKKLLKLREQGTESRSSTPLPTISSSAENTRQNGSNDSDRYSDNEEGKKKEHKKVKSTRDIVPFSELGTTPSGGGFFQGISFPEISTRPPLGSTELQAAKKVHTSKGDLPREPLVATNLPGRGQLQKLASERNLFISCKSSHDRCLEKSSSSSSQPEHSAMLVSTAASPSLIKETTTGYYKDIVENICGREKSGIQPLCPERSHISDQSPLSSKRKALEESESSQLISPPLAQAIRDYVNSLLVQGGVGSLPGTSNSMPPLDVENIQKRIDQSKFQETEFLSPPRKVPRLSEKSVEERDSGSFVAFQNIPGSELMSSFAKTVVSHSLTTLGLEVAKQSQHDKIDASELSFPFHESILKVIEEEWQQVDRQLPSLACKYPVSSREATQILSVPKVDDEILGFISEATPLGGIQAASTESCNQQLDLALCRAYEAAASALQIATHTAFVAKAMQADISQAAQILSSDPSRTHQALGILSKTYDAASYICEAAFDEVKMAAHTMGNATVGRRYLWLKDCKINLASKNKLASTPFKGGTLFGGEVCKVIKKRGNKH
binds	binds	–	–	LMNB2 (protein, UniProt Q03252 1-620) MSPPSPGRRREQRRPRAAATMATPLPGRAGGPATPLSPTRLSRLQEKEELRELNDRLAHYIDRVRALELENDRLLLKISEKEEVTTREVSGIKALYESELADARRVLDETARERARLQIEIGKLRAELDEVNKSAKKREGELTVAQGRVKDLESLFHRSEVELAAALSDKRGLESDVAELRAQLAKAEDGHAVAKKQLEKETLMRVDLENRCQSLQEELDFRKSVFEEEVRETRRRHERRLVEVDSSRQQEYDFKMAQALEELRSQHDEQVRLYKLELEQTYQAKLDSAKLSSDQNDKAASAAREELKEARMRLESLSYQLSGLQKQASAAEDRIRELEEAMAGERDKFRKMLDAKEQEMTEMRDVMQQQLAEYQELLDVKLALDMEINAYRKLLEGEEERLKLSPSPSSRVTVSRATSSSSGSLSATGRLGRSKRKRLEVEEPLGSGPSVLGTGTGGSGGFHLAQQASASGSVSIEEIDLEGKFVQLKNNSDKDQSLGNWRIKRQVLEGEEIAYKFTPKYILRAGQMVTVWAAGAGVAHSPPSTLVWKGQSSWGTGESFRTVLVNADGEEVAMRTVKKSSVMRENENGEEEEEEAEFGEEDLFHQQGDPRTTSRGCYVM

These are yes or no findings as the source states them, for the method shown. Binding seen in cells or lysates may run through a third protein. Here binding means that the protein was enriched with, or labelled near, the bait; the list need not be complete.
